Values from PubChem BioAssay AID1159578 (Peter MacCallum Cancer Centre, 2015)
This is a random part of about 18,000 reagents. About 1,030 of all reagents (5.7%) count as active. 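Inactive calls also include pools with fewer than 3300 nuclei, whose migration was not assessed.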 The raw values are shown without normalisation. Further read-outs or replicates are left out here. Reagent sequences are not shown.

Screen: 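Knock-downs that alter how fast lymphatic endothelial cells migrate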 (primary screen)
Cells: human lymphatic endothelial cells
Reagents: siRNA pool against human genes, 40 nM
Duration: 48 h after transfection
Read-out: 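High-content imaging of dye-stained cells in a scratch assay measures filled wound area and nuclei per well; duplicate means given as ratio to mock and robust z-score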
Scale: migration robust z-score: higher = faster migration into the scratch; nuclei per well: higher = more cells in the well
Rule for the call: 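Migration changed when robust z exceeds 2 or falls below -2 and mean nuclei number is at least 3300; otherwise not called changed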
Calls: active = migration changed; inactive = no migration change, or too few cells

SPEG — migration robust z-score = -0.26; migration class with cell-count check = migration z between -2 and 2; enough cells; nuclei per well, duplicate mean = 4134; activity call = inactive
EGFLAM — migration robust z-score = 0.22; migration class with cell-count check = migration z between -2 and 2; enough cells; nuclei per well, duplicate mean = 6721; activity call = inactive
RETN — migration robust z-score = 0.55; migration class with cell-count check = migration z between -2 and 2; enough cells; nuclei per well, duplicate mean = 6175; activity call = inactive
CALR — migration robust z-score = 1.14; migration class with cell-count check = migration z between -2 and 2; enough cells; nuclei per well, duplicate mean = 6255; activity call = inactive
SPDEF — migration robust z-score = 0.11; migration class with cell-count check = migration z between -2 and 2; enough cells; nuclei per well, duplicate mean = 6732; activity call = inactive
BLNK — migration robust z-score = -1.04; migration class with cell-count check = migration z between -2 and 2; enough cells; nuclei per well, duplicate mean = 6016; activity call = inactive
MAGEB3 — migration robust z-score = 0.14; migration class with cell-count check = migration z between -2 and 2; enough cells; nuclei per well, duplicate mean = 6299; activity call = inactive
TMEM88 — migration robust z-score = -0.66; migration class with cell-count check = migration z between -2 and 2; enough cells; nuclei per well, duplicate mean = 6481; activity call = inactive
MYH14 — migration robust z-score = -1.89; migration class with cell-count check = migration z between -2 and 2; enough cells; nuclei per well, duplicate mean = 5602; activity call = inactive
RC3H2 — migration robust z-score = -0.52; migration class with cell-count check = migration z between -2 and 2; enough cells; nuclei per well, duplicate mean = 5590; activity call = inactive
EGR2 — migration robust z-score = -0.34; migration class with cell-count check = migration z between -2 and 2; enough cells; nuclei per well, duplicate mean = 5696; activity call = inactive
RHBDF1 — migration robust z-score = -0.7; migration class with cell-count check = migration z between -2 and 2; enough cells; nuclei per well, duplicate mean = 5163; activity call = inactive
RPLP2 — migration robust z-score = -0.85; migration class with cell-count check = migration z between -2 and 2; enough cells; nuclei per well, duplicate mean = 4946; activity call = inactive

Next part; the last 3 above are carried over.
EGR2 — migration robust z-score = -0.34; migration class with cell-count check = migration z between -2 and 2; enough cells; nuclei per well, duplicate mean = 5696; activity call = inactive
RHBDF1 — migration robust z-score = -0.7; migration class with cell-count check = migration z between -2 and 2; enough cells; nuclei per well, duplicate mean = 5163; activity call = inactive
RPLP2 — migration robust z-score = -0.85; migration class with cell-count check = migration z between -2 and 2; enough cells; nuclei per well, duplicate mean = 4946; activity call = inactive
RBM18 — migration robust z-score = -1.64; migration class with cell-count check = migration z between -2 and 2; enough cells; nuclei per well, duplicate mean = 6158; activity call = inactive
XRCC3 — migration robust z-score = 0.23; migration class with cell-count check = migration z between -2 and 2; enough cells; nuclei per well, duplicate mean = 7071; activity call = inactive
TFIP11 — migration robust z-score = -1.78; migration class with cell-count check = migration z between -2 and 2; enough cells; nuclei per well, duplicate mean = 5572; activity call = inactive
FXYD2 — migration robust z-score = -2.18; migration class with cell-count check = migration z below -2; enough cells; nuclei per well, duplicate mean = 4277; activity call = active
FEM1B — migration robust z-score = 0.7; migration class with cell-count check = migration z between -2 and 2; enough cells; nuclei per well, duplicate mean = 4610; activity call = inactive
LHFPL1 — migration robust z-score = 0.84; migration class with cell-count check = migration z between -2 and 2; enough cells; nuclei per well, duplicate mean = 5046; activity call = inactive
MRPL42 — migration robust z-score = -0.56; migration class with cell-count check = migration z between -2 and 2; enough cells; nuclei per well, duplicate mean = 5462; activity call = inactive
CCSAP — migration robust z-score = 0.9; migration class with cell-count check = migration z between -2 and 2; enough cells; nuclei per well, duplicate mean = 6310; activity call = inactive
